Measurements reported in the supplement of paper PMC3334620.
Whole data set: some 33,000 sequences, median “E-score (-0.5 to 0.5)” near -0.0059, cut for the highest 2% near 0.26. Some of the results follow.

Target: T1, Cin5 (UniProt P40917)
T1 sequence: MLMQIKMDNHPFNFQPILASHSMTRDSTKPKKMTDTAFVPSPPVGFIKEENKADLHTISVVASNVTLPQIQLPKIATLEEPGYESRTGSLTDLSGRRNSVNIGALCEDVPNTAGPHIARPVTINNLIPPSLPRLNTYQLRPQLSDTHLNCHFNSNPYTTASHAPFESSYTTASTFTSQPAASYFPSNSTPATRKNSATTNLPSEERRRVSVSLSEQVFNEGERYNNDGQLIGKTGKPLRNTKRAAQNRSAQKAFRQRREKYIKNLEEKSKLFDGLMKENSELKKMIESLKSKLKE
Assay: PBM E-score (8-mer binding enrichment) (E-score (-0.5 to 0.5)); higher = stronger / more preferred TF binding
Conditions: protein concentration: 100 nM; construct: GST-full length
In short: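 PURExpress in vitro transcription/translation supplied GST-tagged yeast transcription factors, either full-length or DNA-binding domain. Applied at about 100-200 nM to universal all-10-mer Agilent arrays double-stranded by primer extension, the bound protein was detected with fluorescent anti-GST. E-scores, modified Wilcoxon-Mann-Whitney statistics, were given by the Universal PBM Analysis Suite to ungapped eight-base words pooled with their reverse complements after masliner normalisation.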

Row | Sequence | PBM E-score
1 | CCTCTGCC | -0.293
2 | CACTGGAA | -0.0573
3 | ATTCTTTC | 0.111
4 | GAGCGAGA | 0.166
5 | AAGCTCGT | -0.0702
6 | GACAAGCA | -0.191
7 | ACTGGAAA | 0.0219
8 | GGCCTGAC | -0.102
9 | ACATTAGG | -0.0945
10 | CTTGACAA | -0.0275
11 | GAGGCGAA | -0.0517
12 | CGAGGGTC | -0.429
13 | ATGTGGGA | 0.00338
14 | AATTTGCG | 0.0871
15 | GCTGTACA | -0.137
16 | GAACATTC | 0.0621
17 | ACAGAAGT | -0.0924
18 | ATCGATCA | 0.13
19 | TCACCTGA | -0.164
20 | GCCAGCCC | -0.138
21 | CCGTAAAC | 0.072
22 | CCATGGAC | -0.0893

Row | Sequence | PBM E-score
23 | AGGCGACC | -0.245
24 | GATCATCA | -0.0379
25 | ACGCCTCT | -0.0461
26 | CGCCGATA | -0.106
27 | ATCGCGCG | 0.19
28 | ACCGAAGC | -0.122
29 | ACGAAGGC | -0.196
30 | CGAGCCTC | -0.193
31 | CCGCAGGA | -0.121
32 | CGTCTTGA | -0.0711
33 | AACAGAAA | 0.155
34 | ACGATGGC | 0.0358
35 | GTACAACA | 0.182
36 | GTACACAA | 0.0667
37 | GCAGGAAC | -0.0698
38 | CTATGACA | 0.061
39 | CATGCCGG | 0.106
40 | ATACATGC | 0.0658
41 | CGCGTTCA | 0.181
42 | CCATTATA | 0.199
43 | ATGGTTTA | 0.0993
44 | CTCGTTGC | 0.157

Row | Sequence | PBM E-score
45 | TACTGGGA | 0.0553
46 | TGTGTTAA | 0.15
47 | ACCCGAGG | -0.204
48 | AGCGAGGG | -0.25
49 | AGTGCGAC | -0.0654
50 | CGAAAGAA | 0.154
51 | TACATTAA | 0.262
52 | AGATTTAG | 0.0923
53 | CTCTTGTC | -0.0756
54 | ATGGCCAA | -0.0287
55 | GTGTAATA | 0.193
56 | GCGGGCCA | -0.191
57 | ATCAAAGG | 0.133
58 | ATGAGACC | 0.063
59 | CAAGGGCA | -0.25
60 | ACGCCATC | -0.0126
61 | CCACCGAA | -0.048
62 | ATTCATGA | -0.00925
63 | ACATGGTA | 0.0528
64 | AATTATCC | 0.133
65 | CTAAGAAG | 0.00271
66 | CAAACCCA | 0.184

Row | Sequence | PBM E-score
67 | GAGCGACC | -0.203
68 | CACTCCCG | -0.0671
69 | CGGACAAG | 0.0785
70 | AGTAAATC | 0.171
71 | GGATAAGA | 0.115
72 | AACACGCC | -0.00401
73 | AAGATTGA | 0.205
74 | GAAATGTC | 0.0142
75 | GAATAGTA | 0.219
76 | CGTATCCA | -0.00233
77 | ACGGACTC | -0.143
78 | GCAACCCC | -0.143
79 | ACTGAGAA | -0.0132
80 | ATGACGAG | -0.131
81 | ATAAATGG | 0.129
82 | CGGGATTA | 0.294
83 | ACATTTAT | 0.161
84 | GCTCTTTA | -0.0278
85 | CTCTCTGC | 0.0296
86 | ACCCACGT | 0.0347
87 | AAACGGTA | 0.114
88 | ATCGTTGA | 0.0692

From no. 33 as far as 66, as listed above:
Row | Sequence | PBM E-score
33 | AACAGAAA | 0.155
34 | ACGATGGC | 0.0358
35 | GTACAACA | 0.182
36 | GTACACAA | 0.0667
37 | GCAGGAAC | -0.0698
38 | CTATGACA | 0.061
39 | CATGCCGG | 0.106
40 | ATACATGC | 0.0658
41 | CGCGTTCA | 0.181
42 | CCATTATA | 0.199
43 | ATGGTTTA | 0.0993
44 | CTCGTTGC | 0.157
45 | TACTGGGA | 0.0553
46 | TGTGTTAA | 0.15
47 | ACCCGAGG | -0.204
48 | AGCGAGGG | -0.25
49 | AGTGCGAC | -0.0654
50 | CGAAAGAA | 0.154
51 | TACATTAA | 0.262
52 | AGATTTAG | 0.0923
53 | CTCTTGTC | -0.0756
54 | ATGGCCAA | -0.0287
55 | GTGTAATA | 0.193
56 | GCGGGCCA | -0.191
57 | ATCAAAGG | 0.133
58 | ATGAGACC | 0.063
59 | CAAGGGCA | -0.25
60 | ACGCCATC | -0.0126
61 | CCACCGAA | -0.048
62 | ATTCATGA | -0.00925
63 | ACATGGTA | 0.0528
64 | AATTATCC | 0.133
65 | CTAAGAAG | 0.00271
66 | CAAACCCA | 0.184

(further entries)

Row | Sequence | PBM E-score
89 | AGCATTAG | -0.0591
90 | CACCTTAG | -0.0475
91 | ATCGTCAA | -0.0893
92 | AACATTGA | 0.0511
93 | CCACTCGA | 0.00379
94 | CGTGAGAA | -0.0477
95 | CGTGGGCA | -0.25
96 | CGTATCGA | -0.123
97 | CATGGCAC | 0.00069
98 | CGCGGGAC | 0.16
99 | CACTTCCG | 0.104
100 | AGGAATGA | 0.0586
101 | GTGCGACA | -0.176
102 | AGTTAGTC | -0.0899
103 | ACGCAAGT | -0.0764
104 | CATGGTAA | 0.0768
105 | AATTGCGC | 0.165
106 | ACGTATAC | 0.113
107 | CTTTCCAC | 0.0658
108 | GGCTAGTA | 0.0442
109 | AGTTAGGA | 0.00723
110 | ACTTCCCG | -0.0152
